These are yes or no findings as the source states them, for the method shown. Binding seen in cells or lysates may run through a third protein. Here binding means that the protein was enriched with, or labelled near, the bait; the list need not be complete. Where a sequence is shown, tags or fusion partners need not be part of it.

Data on five molecules can be found in article PMC4351826.

The target of the test is T1, DRB2-Cmyc (Arabidopsis thaliana) (UniProt Q9SKN2).
T1 sequence: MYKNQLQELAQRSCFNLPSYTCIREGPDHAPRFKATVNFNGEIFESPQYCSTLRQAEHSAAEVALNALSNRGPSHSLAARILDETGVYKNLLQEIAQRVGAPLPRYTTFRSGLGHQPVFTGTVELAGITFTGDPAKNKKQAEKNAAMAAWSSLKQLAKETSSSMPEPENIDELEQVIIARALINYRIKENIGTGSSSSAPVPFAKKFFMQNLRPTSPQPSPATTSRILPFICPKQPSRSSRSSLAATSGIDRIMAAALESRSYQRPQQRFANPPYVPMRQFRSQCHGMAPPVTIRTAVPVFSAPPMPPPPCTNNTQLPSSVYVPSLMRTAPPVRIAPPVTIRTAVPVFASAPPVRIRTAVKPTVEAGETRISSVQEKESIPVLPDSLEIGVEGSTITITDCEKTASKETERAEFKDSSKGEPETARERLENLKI
Nature of the test: affinity purification with mass spectrometry; Cmyc IP (Miltenyi columns) from 1.5 g of mixed floral tissues of the DRB2-Cmyc line, Col-0 as control; SDS-PAGE, specific bands cut, nanoLC-MS/MS.

B1: WD40 containing protein At3g18060 (protein, UniProt Q9LV35 1-609)
chain: MELSETYACVPSTERGRGILISGNSKSDTILYTNGRSVVTLDLNNPLKVSIYGEHAYPATVARYSPNGEWIASGDVSGTVRIWGAYNDHVLKNEFKVLAGRIDDLQWSADGMRIVASGDGKGKSLVRAFMWDSGSNVGEFDGHSRRVLSCAIKPTRPFRIVTCGEDFLVNFYEGPPFKFKLSSREHSNFVNCVRFAPDGSKFITVSSDKKGIIYDGKTCEILGELSSDDGHKGSIYAVSWSPDGKQVLTVSADKSAKIWDISDNGSGSLNTTLNCPGSSGGVDDMLVGCLWQNDHIVTVSLGGTISIFSASDLDKSPFQFSGHMKNVSSLAVLKGNADYILSGSYDGLICKWMLGRGFCGKLQRTQNSQIKCFAAHEEEIVTSGYDNKISRISYKDDQCTNEESIDIGNQPKDLSLAPLSPDLLLVTFESGVVFLRDGKVVSTINLGFIVTALAVTPDGTEAVIGGQDGKLHLYSINGDSLTEEAVLERHRGAISVIRYSPDLSMFASADLNREAVVWDRVSREMKLKNMLYHSARINCLAWSPNSTMVATGSLDTCVIVYEVDKPASSRMTIKGAHLGGVYGLGFADDSHVVSSGEDACIRVWSFTPQ
For B1, the binding entry is “binds”.

B2: PRMT4B (PROTEIN ARGININE … 4B) (enzyme, UniProt Q84W92 1-535)
chain: MEVSSVKKLEQLEYSLESVTDLSSSSVSSSSPAVATFSYVDGVTELRFLQSDSTHCFNFDLASAQLFKLGPVHFICVSDGSSSSEEKSFSKGVNIKFKNEKDSKDFCESFEEWRNDSVVQGSSLQNGTVSANKSKFDNKIEASSAKMYFHYYGQLLHQQNMLQDYVRTGTYYAAVMENHSDFAGRVVVDVGAGSGILSMFAAQAGAKHVYAVEASEMAEYARKLIAGNPLFADRITVIKGKVEDIELPEKADILISEPMGTLLVNERMLESYVIARDRFMTPKGKMFPTVGRIHMAPFSDEFLFIEMANKAMFWQQQNYYGVDLTPLYGSAHQGYFSQPVVDAFDPRLLVASPMFHMIDFTQMKEEDFYEIDIPLKFTASMCTRMHGLACWFDVLFDGSTVQRWLTTAPGAPTTHWYQIRCVLSQPIYVMAGQEITGRLHLIAHSAQSYTIDLTLSAKMWGPGASQGGILQSSTCKFDLKEPYYRMSQPQAYPVAQEPPLQPQPELSTQQDIQTPNDELEEELLQQLPQNPSAQL
For B2, the binding entry is given as “binds”.

B3: MSI4 (MULTICOPY SUPPRESSOR OF IRA1 4) (protein, UniProt O22607 1-507)
chain: MESDEAAAVSPQATTPSGGTGASGPKKRGRKPKTKEDSQTPSSQQQSDVKMKESGKKTQQSPSVDEKYSQWKGLVPILYDWLANHNLVWPSLSCRWGPQLEQATYKNRQRLYLSEQTDGSVPNTLVIANCEVVKPRVAAAEHISQFNEEARSPFVKKYKTIIHPGEVNRIRELPQNSKIVATHTDSPDVLIWDVETQPNRHAVLGAANSRPDLILTGHQDNAEFALAMCPTEPFVLSGGKDKSVVLWSIQDHITTIGTDSKSSGSIIKQTGEGTDKNESPTVGPRGVYHGHEDTVEDVAFSPTSAQEFCSVGDDSCLILWDARTGTNPVTKVEKAHDADLHCVDWNPHDDNLILTGSADNTVRLFDRRKLTANGVGSPIYKFEGHKAAVLCVQWSPDKSSVFGSSAEDGLLNIWDYDRVSKKSDRAAKSPAGLFFQHAGHRDKVVDFHWNASDPWTIVSVSDDCETTGGGGTLQIWRMSDLIYRPEEEVVAELEKFKSHVMTCASKP
Consider B3, for which the binding entry is listed as “binds”.

B4: HDA19/HD1 (HISTONE … 19/1) (enzyme, UniProt O22446 1-501)
chain: MDTGGNSLASGPDGVKRKVCYFYDPEVGNYYYGQGHPMKPHRIRMTHALLAHYGLLQHMQVLKPFPARDRDLCRFHADDYVSFLRSITPETQQDQIRQLKRFNVGEDCPVFDGLYSFCQTYAGGSVGGSVKLNHGLCDIAINWAGGLHHAKKCEASGFCYVNDIVLAILELLKQHERVLYVDIDIHHGDGVEEAFYATDRVMTVSFHKFGDYFPGTGHIQDIGYGSGKYYSLNVPLDDGIDDESYHLLFKPIMGKVMEIFRPGAVVLQCGADSLSGDRLGCFNLSIKGHAECVKFMRSFNVPLLLLGGGGYTIRNVARCWCYETGVALGVEVEDKMPEHEYYEYFGPDYTLHVAPSNMENKNSRQMLEEIRNDLLHNLSKLQHAPSVPFQERPPDTETPEVDEDQEDGDKRWDPDSDMDVDDDRKPIPSRVKREAVEPDTKDKDGLKGIMERGKGCEVEVDESGSTKVTGVNPVGVEEASVKMEEEGTNKGGAEQAFPPKT
On to B4, for which the binding result is given as “binds”.

B5: WD40 containing protein At3g63460 (protein, UniProt Q8L611 1-1104)
chain: MACIKGVGRSASVALAPDAPYMAAGTMAGAVDLSFSSSANLEIFKLDFQSDDRDLPLVGEIPSSERFNRLAWGRNGSGSEEFALGLIAGGLVDGNIDLWNPLSLIGSQPSENALVGHLSVHKGPVRGLEFNAISSNLLASGADDGEICIWDLLKPSEPSHFPLLKGSGSATQGEISFISWNRKVQQILASTSYNGTTVIWDLRKQKPIINFADSVRRRCSVLQWNPNVTTQIMVASDDDSSPTLKLWDMRNIMSPVREFTGHQRGVIAMEWCPSDSSYLLTCAKDNRTICWDTNTAEIVAELPAGNNWNFDVHWYPKIPGVISASSFDGKIGIYNIEGCSRYGVEENNFGTAPLKAPKWYKRPVGASFGFGGKLVSCHARAPAKGTSSILSEVFLHSLVTEQSLVSRTSEFEAAIENGDMTSLRGLCEKKSEETESEEEKETWGLLKIMFEEEGTSRTKLISHLGFTLPVAEKDQAVDGLSSDLNGIRLEDTAADALDLDDSNEAAAFAMDNGEDFFNNFPAKPDTPVSTSAKDFMPSDTDFSTKGEETQEMQEEEEESSDPVFDNAIQRALIVGDYKEAVDQCITANKMADALVIAHVGGTALWESTREKYLKTSSAPYMKVVSAMVNNDLRSLIYTRSHKFWKETLALLCTFAQGEQWTTLCDALASKLMAAGNTLAAVLCYICAGNVDRTVEIWSRSLANERDGRSYAELLQDLMEKTLVLALATGNKKFSASLCKLFESYAEILASQGLLTTAMKYLKVLDSGGLSPELSILRDRISLSAEPETNTTASGNTQPQSTMPYNQEPTQAQPNVLANPYDNQYQQPYTDSYYVPQVSHPPMQQPTMFMPHQAQPAPQPSFTPAPTSNAQPSMRTTFVPSTPPALKNADQYQQPTMSSHSFTGPSNNAYPVPPGPGQYAPSGPSQLGQYPNPKMPQVVAPAAGPIGFTPMATPGVAPRSVQPASPPTQQAAAQAAPAPATPPPTVQTADTSNVPAHQKPVIATLTRLFNETSEALGGARANTTKKREIEDNSRKLGALFVKLNSGDISKNAADKLAQLCQALDNNDFSTALQIQVLLTTSEWDECNFWLATLKRMMVKARQNVR
Take B5: the binding result is given as “binds”.
